PubChem BioAssay AID720703, Peter MacCallum Cancer Centre, 2013

- Assay: 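Find kinases that boost or dampen angiotensin II-triggered EGFR transactivation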 (primary screen)
- System: immortalised, SV40-transformed mammary epithelial cells from human, with stable expression of tagged AT1R
- Reagents: siRNA pool against human genes, 40 nM siRNA pool per well
- Time to read-out: 72 h from transfection to lysis and read-out
- Challenge: angiotensin II stimulation (dose and duration not given); EGFR inhibitor AG1478 also listed
- Detection: 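ERK1/2 phosphorylation corrected for confluency, given as a robust z-score, mean over two replicate plates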
- Direction: phospho-ERK z-score: higher = more ERK phosphorylation after angiotensin II, relative to plate
- Rule for the call: 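Pools were ordered by robust z-score and 50 top-ranked pools, whether they raised or lowered the signal, were chosen for secondary testing; no numeric threshold was reported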
- Meaning of the calls: active = picked for secondary screen; inactive = not picked
The whole screen tested 714 reagents; this is a part drawn at random. Of all reagents, 50 (7%) are marked active. 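Chosen pools sit at both extremes, so both low and high scores count as candidates; some pools appear more than once.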 The numbers tell different reagents against one gene apart. Some reagents were tested in more than one well and are listed for each.

| gene | reagent no. | phospho-ERK z-score, replicate mean | call |
| --- | --- | --- | --- |
| PIM3 | 1 | -0.94 | inactive |
| PLK1 | 1 | 2.15 | inactive |
| AK5 | 1 | 0.08 | inactive |
| FGFRL1 | 1 | -0.55 | inactive |
| COQ8B | 1 | -0.46 | inactive |
| OBSCN | 1 | 0.51 | inactive |
| CSNK2A1 | 1 | 0.92 | inactive |
| PRKD2 | 1 | 1.39 | inactive |
| PRKAG2 | 1 | 1.49 | inactive |
| POMK | 1 | -0.03 | inactive |
| POMK | 1 | -0.01 | inactive |
| CDK14 | 1 | 0.62 | inactive |
| TAOK1 | 1 | -0.22 | inactive |
| STK33 | 1 | -1.06 | inactive |
| GUCY2F | 1 | -0.38 | inactive |
| DGKH | 1 | 4.97 | active |
| PIK3CG | 1 | 0.82 | inactive |
| CDKL2 | 1 | 0.85 | inactive |
| NTRK2 | 1 | 0.14 | inactive |
| TJP2 | 1 | 0.15 | inactive |
| RAF1 | 1 | 0.36 | inactive |
| SPEG | 1 | -0.75 | inactive |
| PFKFB4 | 1 | -0.26 | inactive |
| PAK6 | 1 | 0.4 | inactive |
| GRK5 | 1 | 0.62 | inactive |
| PAPSS1 | 1 | 0.46 | inactive |
| STK4 | 1 | -0.39 | inactive |
| MAP3K8 | 1 | 3.02 | active |
| PIK3R5 | 1 | -0.24 | inactive |
| DLG4 | 1 | 0.82 | inactive |
| NME4 | 1 | 0.14 | inactive |
| DYRK2 | 1 | 1.23 | inactive |
| PANK3 | 1 | 0.64 | inactive |
| AKT2 | 1 | 0.4 | inactive |
| BRDT | 1 | -0.43 | inactive |
| CDK1 | 1 | 0.55 | inactive |
| CDC7 | 1 | -0.3 | inactive |
| PDGFRA | 1 | 0.66 | inactive |
| DYRK4 | 1 | -0.75 | inactive |
| TPK1 | 1 | 0.3 | inactive |
| CSNK1A1 | 1 | -1 | inactive |
| GOLGA5 | 1 | 0.1 | inactive |
| BMPR1B | 1 | -1.19 | inactive |
| PIK3CB | 1 | 0.53 | inactive |
| ANKK1 | 1 | 0.84 | inactive |
| PRPS2 | 1 | 0.28 | inactive |
| KCNH8 | 1 | -0.24 | inactive |
| ALPK2 | 1 | 0.22 | inactive |
| FLT1 | 1 | 0.65 | inactive |
| EIF2AK4 | 1 | 0.77 | inactive |
| BLK | 1 | 0.4 | inactive |
| ATR | 1 | -0.78 | inactive |
| YES1 | 1 | 1.24 | inactive |
| PSKH2 | 1 | 3.75 | active |
| TEC | 1 | 0.82 | inactive |
| PIK3C2B | 1 | 1.97 | inactive |
| ILK | 1 | -0.82 | inactive |
| ILK | 2 | 0.9 | inactive |
| FASTK | 1 | 0.35 | inactive |
| HK3 | 1 | -0.98 | inactive |
| GUK1 | 1 | 0.05 | inactive |
| MAGI3 | 1 | 0.22 | inactive |
| TAB1 | 1 | -0.96 | inactive |
| PANK2 | 1 | -1.23 | inactive |
| EEF2K | 1 | -0.98 | inactive |
| GRK4 | 1 | 0.76 | inactive |
| CAMK2B | 1 | 0.3 | inactive |
| MYLK2 | 1 | -0.46 | inactive |
| ITPK1 | 1 | -0.83 | inactive |
| CDADC1 | 1 | 2.08 | inactive |
| PRKACB | 1 | 0.86 | inactive |
| PI4K2B | 1 | -0.62 | inactive |
| HSPB8 | 1 | 1.01 | inactive |
| CDKL3 | 1 | 0.66 | inactive |
| RNASEL | 1 | -0.82 | inactive |

Already shown: 10 of the entries above.
| gene | reagent no. | phospho-ERK z-score, replicate mean | call |
| --- | --- | --- | --- |
| PANK2 | 1 | -1.23 | inactive |
| EEF2K | 1 | -0.98 | inactive |
| GRK4 | 1 | 0.76 | inactive |
| CAMK2B | 1 | 0.3 | inactive |
| MYLK2 | 1 | -0.46 | inactive |
| ITPK1 | 1 | -0.83 | inactive |
| CDADC1 | 1 | 2.08 | inactive |
| PRKACB | 1 | 0.86 | inactive |
| PI4K2B | 1 | -0.62 | inactive |
| HSPB8 | 1 | 1.01 | inactive |
